# Measured values: US20160221964A1 (priority 2013, published 2016)
# Where two headings read alike, the source gives them in different places. Some of these results come from one statement about several compounds together.
# Assays:
# Assay type in all cases: in vivo
# Phakopsora pachyrhizi [1] = experiment: Protective control of soy bean rust on soy beans caused by Phakopsora pachyrhizi; conditions: 250 ppm, soy bean seedlings, inoculated after 1 day, fourteen days, untreated plants 95%
# Phytophthora infestans [2] = conditions: 250 ppm, tomato plants, inoculated the next day, after 6 days; untreated plants 83%
# Phakopsora pachyrhizi [3] = experiment: Curative action against Phakopsora pachyrhizi on soybeans (rust of soybean); conditions: 250 ppm, soybean seedlings, curative (sprayed after infection), further 14 days; untreated plants 95%
# Phytophthora infestans [4] = conditions: 250 ppm, tomato plants, inoculated after seven days, 6 days; untreated plants 84%
SMILES,diseased leaf area (Phakopsora pachyrhizi [1]),diseased leaf area (Phytophthora infestans [2]),diseased leaf area (Phakopsora pachyrhizi [3]),diseased leaf area (Phytophthora infestans [4])
CC(CC#Cc1ccc(Oc2cc(C(F)(F)F)ccn2)cc1)Nc1cc(C#N)ncn1 (stereo not shown) [I-96],at most 15%,,,
COCc1ncnc(NCCC#Cc2ccc(Oc3cc(C(F)(F)F)ccn3)cc2)c1OC [I-87],,at most 20%,at most 15%,
CC(CC#Cc1ccc(Oc2cc(Cl)ncn2)cc1)Nc1ncnc(C(C)F)c1Cl (stereo not shown) [I-89],,at most 20%,at most 15%,at most 20%
CC(CC#Cc1ccc(Oc2cc(C(F)(F)F)ccn2)cc1)Nc1ncncc1F (stereo not shown) [I-83],at most 15%,,,
CC(CC#Cc1ccc(Oc2cc(Cl)ncn2)cc1)Nc1ncnc2cccnc12 (stereo not shown) [I-86],at most 15%,at most 20%,,
CCc1ncnc(NC(C)CC#Cc2ccc(Oc3cc(Cl)ncn3)cc2)c1Cl (stereo not shown) [I-101],at most 15%,at most 20%,,at most 20%
COc1c(Cl)ncnc1NC(C)CC#Cc1ccc(Oc2ccnc(Cl)n2)cc1 (stereo not shown) [I-99],,at most 20%,,
COCc1ncnc(NC(C)CC#Cc2ccc(Oc3ccc(Cl)cn3)cc2)c1OC (stereo not shown) [I-106],,at most 20%,at most 15%,at most 20%
Cc1c(Cl)ncnc1NC(C)CC#Cc1ccc(Oc2ccnc(Cl)n2)cc1 (stereo not shown) [I-98],,at most 20%,,
CCc1ncnc(NC(C)CC#Cc2ccc(Oc3ccc(Cl)cn3)cc2)c1Cl (stereo not shown) [I-107],,at most 20%,,at most 20%
CCc1c(Cl)ncnc1NCCC#Cc1ccc(Oc2ncnc(Cl)c2CC)cc1 [I-84],,at most 20%,,
CC(CC#Cc1ccc(Oc2ccnc(Cl)n2)cc1)Nc1ncnc(C(C)F)c1Cl (stereo not shown) [I-97],at most 15%,at most 20%,,
CC(CC#Cc1ccc(Oc2cc(C(F)(F)F)ccn2)cc1)Nc1ncnc(Cl)c1N(C)C (stereo not shown) [I-100],,,,at most 20%
CCNc1c(Cl)ncnc1NC(C)CC#Cc1ccc(Oc2cc(C(F)(F)F)ccn2)cc1 (stereo not shown) [I-93],at most 15%,,,
Cc1c(Cl)ncnc1NC(C)CC#Cc1ccc(Oc2cc(Cl)ncn2)cc1 (stereo not shown) [I-90],at most 15%,at most 20%,,
Cc1ncnc(NC(C)CC#Cc2ccc(Oc3ccc(Cl)cn3)cc2)c1Cl (stereo not shown) [I-105],at most 15%,at most 20%,,at most 20%
CC(CC#Cc1ccc(Oc2cc(Cl)ncn2)cc1)Nc1ncnc2scnc12 (stereo not shown) [I-88],,at most 20%,,
COc1c(Cl)ncnc1NC(C)CC#Cc1ccc(Oc2cc(Cl)ncn2)cc1 (stereo not shown) [I-91],,at most 20%,,at most 20%
CC(CC#Cc1ccc(Oc2cc(C(F)(F)F)ccn2)cc1)Nc1ncnc2nccnc12 (stereo not shown) [I-95],at most 15%,at most 20%,,
"CNc1c(Cl)ncnc1NC(C)CC#Cc1ccc(Oc2cc(C(F)(F)F)ccn2)cc1 (stereo not shown) [I-92, 6-chloro-N5-methyl-N4-[1-methyl-4-[4-[[4-(trifluoromethyl)-2-pyridyl]oxy]phenyl]but-3-ynyl]pyrimidine-4,5-diamine]",at most 15%,at most 20%,,
FC(F)(F)c1ccnc(Oc2ccc(C#CCCNc3ncnc4nccnc34)cc2)c1 [I-94],at most 15%,,,
COCc1ncnc(NC(C)CC#Cc2ccc(Oc3ccc(C(F)(F)F)cn3)cc2)c1OC (stereo not shown) [I-102],,at most 20%,at most 15%,at most 20%
Clc1ncnc(NCCC#Cc2ccc(Oc3ncnc(Cl)c3Cl)cc2)c1Cl [I-85],,,,at most 20%
CCc1ncnc(NC(C)CC#Cc2ccc(Oc3ccc(C(F)(F)F)cn3)cc2)c1Cl (stereo not shown) [I-103],,at most 20%,,at most 20%
